Experimental data: patent US12285407B2, “Bis-indolylmethane derivatives and uses thereof” (The University of The West Indies, priority 2018, dated 2025)
Some entries share one result that the patent states for a list of compounds.

Legend:
MRSA = assay: Adjuvant broth microdilution (antibiotic MIC with SP-BIM at 50 μg/mL); type: cell-based, Staphylococcus aureus; details: SP-BIM at 50 μg mL^−1
Streptococcus pneumoniae = assay: as above; type: cell-based; details: SP-BIM at 50 μg mL^−1

SMILES	reduction of MICs of all antibiotics except trimethoprim (MRSA)	reduction of MICs of all antibiotics except trimethoprim (Streptococcus pneumoniae)
O=Cc1cccc(C(c2c[nH]c3ccccc23)c2c[nH]c3ccccc23)c1 [SP-BIM 6, 3-(di(1H-indol-3-yl)methyl)benzaldehyde]	at least 4 fold	at least 4 fold
Oc1cccc(C(c2c[nH]c3ccccc23)c2c[nH]c3ccccc23)c1 [SP-BIM 9, 3-(di(1H-indol-3-yl)methyl)phenol]	at least 4 fold	at least 4 fold
Nc1ccc(C(c2c[nH]c3ccccc23)c2c[nH]c3ccccc23)cc1 [SP-BIM 10, 4-(di(1H-indol-3-yl)methyl)aniline]	at least 4 fold	at least 4 fold
Oc1cc(C(c2c[nH]c3ccccc23)c2c[nH]c3ccccc23)cc(O)c1O [SP-BIM 13, 5-(di(1H-indol-3-yl)methyl)benzene-1,2,3-triol]	at least 4 fold	at least 4 fold
Oc1cc(Br)ccc1C(c1c[nH]c2ccccc12)c1c[nH]c2ccccc12 [SP-BIM 15, 5-bromo-2-(di(1H-indol-3-yl)methyl)phenol]	at least 4 fold	at least 4 fold
